Laboratory results from patent publication US20220193029A1, “BRYOSTATIN COMPOUNDS FOR ENHANCEMENT OF IMMUNOTHERAPY” (priority 2019, published 2022).

Assays:
[1] = tested on: PKC; test: cell-free PKC binding assay, isoform not given; parameters: species or system human
[2] = tested on: PKCδ-GFP fusion protein; test: PKCδ-GFP translocation assay in living CHO-k1 cells (confocal microscopy); format: cell-based, Chinese hamster

CCC/C=C/C=C/C(=O)O[C@H]1/C(=C/C(=O)OC)C[C@H]2C[C@H]([C@@H](C)O)OC(=O)C[C@H](O)C[C@@H]3C[C@H](OC(C)=O)C(C)(C)[C@](O)(C[C@@H]4C/C(=C/C(=O)OCc5ccccc5)C[C@H](/C=C/C(C)(C)[C@]1(O)O2)O4)O3
decrease in affinity (binds PKC) ([1]; comparator not stated): 2 fold
decrease in affinity to PKC / potency ([1]; versus bryostatin 1 (C13 methyl-(Z)-enoate)): 30 fold
concentration* (minimum effective concentration required to induce translocation of PKC-GFP to the membrane) [2]: 1000 nM
% Translocation ([2]; maximum translocation of PKCδ-GFP to the plasma membrane at the concentration printed in the same cell, SUW212: only brief translocation observed): 60%

The match of structure and compound is tentative.
